# Source: PubChem BioAssay
# For some assays here: The hits were mostly taken out for another list; the other results follow. The entries are a selection whose mix differs from that of the whole data set. For some assays here: Measured potencies and affinities stand elsewhere. Inconclusive results are not listed. The source made the active and inactive calls. Unless noted, how the calls were made is not given here.
# Assays:
# [1] = DNA binders by acridine orange displacement, dose response, counter-screen for EWS/Fli inhibitor project, biochemical, fluorescence polarization, cherry-pick (AID 720586;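 active means fitted curve reaches a 35% signal fall AC35 below twice the sample's top valid tested dose, actives reach about 48 µM in these data; inactive means the rest, including activity in the rising direction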;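 further: 0% = neutral control median and -100% = 10 µM mitoxantrone control median; lower polarization ratio signals compound binding to DNA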); settings: salmon sperm DNA acridine orange fluorescence polarization; at 68 µM (top of the series)
# [2] = non-specific cell cytotoxicity, dose response, cytotoxicity control for PAX8 inhibitor project, plate reader, dry powder samples (AID 743021); settings: cell line, non-specific cytotoxicity counter-screen; at 35 µM (top of the series)
SMILES,"activity change, negative = DNA binding [1]","activity change, negative = cytotoxicity [2]"
CN(C)C(=O)c1cccc(COc2ccc(N3C(N)=NC(N)=NC3(C)C)cc2Cl)c1,inactive: -16.3%,–
O=C(CCCCCCC(=O)Nc1ccccc1)NO,–,inactive: -14.8%
